# Results taken from the supplement of paper PMC9135407.
# Where “and” joins values, the source holds several entries; their conditions need not be identical. Identical values can stand only once. Counter-ions that a name gives are not always drawn. ± gives the standard deviation of the averaged measurements. The list shows a part of the results. Baselines shift from plate to plate; read single values as rough.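 Culture-activated primary human stellate myofibroblasts, where regained lipid droplets signal inactivation. Value: share of Hoechst-counted cells above a per-plate Bodipy cutoff, in duplicate wells, with DMSO negative and nortriptyline positive controls on each plate. Hits: a control-normalized score above the plate's top-tenth-percentile nortriptyline wells, or one of a plate's three best wells. Final well concentrations are not given.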
# Tested on: primary human hepatic stellate cells (donor 1)
# Assay: percent Bodipy-positive cells; higher = more lipid droplet accumulation
# Conditions: 48 h
# [1] = library stock concentration: 3.33 mM
# [2] = library stock concentration: 6.8 mM
# [3] = library stock concentration: 10 mM
# [4] = library stock concentration: 1 mM
smiles,measurement,setting,value
C=C[C@H]1CN2CC[C@H]1C[C@H]2[C@H](O)c1ccnc2ccccc12 [(-)-Cinchonidine],percent Bodipy-positive cells,,29.9 ± 11%
C=C[C@H]1CN2CC[C@H]1C[C@H]2[C@H](O)c1ccnc2ccccc12 [Cinchonidine],percent Bodipy-positive cells,[1],13.08 ± 0.11%
same,percent Bodipy-positive cells,[2],14 ± 6.9%
same,percent Bodipy-positive cells,[3],23.8% and 17.4%
"CNCC(O)c1ccc(O)cc1 (racemic) [(+,-)-Synephrine]",percent Bodipy-positive cells,,9.32 ± 1.2%
"CN(N=O)c1ccc(O)c(O)c1 [Me-3,4-dephostatin]",percent Bodipy-positive cells,[3],47.6 ± 6.9%
CC(N)Cc1c[nH]c2ccc(OCc3cccs3)cc12.Cl (centres undefined) [BW 723C86 hydrochloride],percent Bodipy-positive cells,[3],70 ± 3%
Cc1ccccc1-n1c(Cn2cnc3c(N)ncnc32)nc2cccc(C)c2c1=O,percent Bodipy-positive cells,library stock concentration: 400 uM,17.9 ± 3%
same,percent Bodipy-positive cells,library stock concentration: 2 mM,16.7 ± 12%
same,percent Bodipy-positive cells,[3],63.1 ± 22%
C[C@]12CC[C@@H](O)C[C@@H]1CC[C@@H]1[C@@H]2CC[C@]2(C)C(=O)CC[C@@H]12 [Androsterone],percent Bodipy-positive cells,,20.3 ± 1.9%
CCCN1CCC[C@@H]2Cc3nc(N)ncc3C[C@H]21 [Quinelorane dihydrochloride],percent Bodipy-positive cells,[3],13.8 ± 4.5%
CC1=CC(=O)C2=C(C)C[C@H](O)[C@@H]3[C@H](OC(=O)[C@H]3C)[C@H]12 [Austricine hydrate],percent Bodipy-positive cells,,12 ± 3.8%
OC[C@@H]1CCCN2CCCC[C@H]12 [Lupinine],percent Bodipy-positive cells,[3],32.5 ± 1.5%
COc1cc2c3cc1Oc1cc(ccc1O)C[C@@H]1c4c(cc(OC)c(O)c4Oc4cccc(c4)C[C@@H]3N(C)CC2)CC[N+]1(C)C [Tubocurarine chloride pentahydrate (+)],percent Bodipy-positive cells,,24.11 ± 0.15%
C=CC[C@]1(O)CC[C@H]2[C@@H]3CCC4=CC(=O)CCC4=C3C=C[C@@]21C [Altrenogest],percent Bodipy-positive cells,[1],12.1 ± 4.8%
same,percent Bodipy-positive cells,library stock concentration: 6.4 mM,2.13 ± 3%
same,percent Bodipy-positive cells,[3],46.3 ± 8.1%
CN1C(=O)[C@]23CC4=CC=C[C@H](O)[C@H]4N2C(=O)[C@@]1(CO)SS3 [Gliotoxin],percent Bodipy-positive cells,library stock concentration: 15.3 mM,100%
C=C1[C@@H]2CC[C@H]3[C@]4(C)C[C@H](O[C@@H]5O[C@H](CO)[C@@H](OS(=O)(=O)O)[C@H](OS(=O)(=O)O)[C@H]5OC(=O)CC(C)C)C[C@@H](C(=O)O)[C@H]4CC[C@]3(C2)[C@@H]1O [Atractyloside potassium salt],percent Bodipy-positive cells,,9.38 ± 4.6%
C=CCN=C=S,percent Bodipy-positive cells,[3],45.8 ± 11%
C=C[C@H]1CN2CC[C@H]1C[C@@H]2[C@@H](O)c1ccnc2ccccc12 [Cinchonine],percent Bodipy-positive cells,,42.9 ± 31%
same,percent Bodipy-positive cells,[2],27.2 ± 7%
same,percent Bodipy-positive cells,[3],16.4 ± 2.2%
"C/C(=C\c1csc(C)n1)[C@@H]1C[C@@H]2O[C@]2(C)CCC[C@H](C)[C@H](O)[C@@H](C)C(=O)C(C)(C)[C@@H](O)CC(=O)O1 [Epothilone B (EPO906, Patupilone)]",percent Bodipy-positive cells,[1],7.13 ± 1%
same,percent Bodipy-positive cells,[3],13.2 ± 3.7%
CC(Cc1ccc(O)cc1)NCC(O)c1cc(O)cc(O)c1 (centres undefined) [Fenoterol hydrobromide],percent Bodipy-positive cells,,27.7 ± 3.4%
same,percent Bodipy-positive cells,library stock concentration: 5.2 mM,9.97 ± 0.34%
Cn1cnc(CCN)c1 [N ?-Methylhistamine dihydrochloride],percent Bodipy-positive cells,[3],7.11 ± 0.47%
Cn1cnc(CCN)c1 [1-Methylhistamine dihydrochloride],percent Bodipy-positive cells,[3],29.1 ± 15%
COc1cc2c(cc1O)[C@@H]1Cc3ccc(OC)c(O)c3CN1CC2 [Scoulerine],percent Bodipy-positive cells,,52 ± 25%
C1CCc2nnnn2CC1 [Pentylenetetrazole],percent Bodipy-positive cells,,31.3 ± 2.1%
same,percent Bodipy-positive cells,[3],25.7% and 3.93%
CC(C)CC(N(C)C)C1(c2ccc(Cl)cc2)CCC1 (centres undefined),percent Bodipy-positive cells,[3],27.4 ± 13%
CC(C)CC(N(C)C)C1(c2ccc(Cl)cc2)CCC1 (centres undefined) [Sibutramine HCl],percent Bodipy-positive cells,library stock concentration: 7.1 mM,29.4 ± 0.56%
CC(C)CC(N(C)C)C1(c2ccc(Cl)cc2)CCC1 (centres undefined) [Sibutramine hydrochloride],percent Bodipy-positive cells,library stock concentration: 6.3 mM,19.9 ± 7.4%
same,percent Bodipy-positive cells,[3],55.3 ± 7.5%
CC(C)CC(N(C)C)C1(c2ccc(Cl)cc2)CCC1 (centres undefined) [Sibutramine],percent Bodipy-positive cells,[3],50 ± 18%
C=CCN1CC[C@]23c4c5ccc(O)c4O[C@H]2/C(=N/NC(=O)c2ccccc2)CC[C@@]3(O)[C@H]1C5 [Naloxone benzoylhydrazone],percent Bodipy-positive cells,[3],8.69 ± 0.36%
COc1ccc(/C=C/C(=O)CC(=O)/C=C/c2ccc(OC)c(OC)c2)cc1OC [Dimethoxycurcumin],percent Bodipy-positive cells,[4],9.63 ± 4.1%
O=c1[nH]c2ccccc2n1CCCN1CCC(n2c(=O)[nH]c3cc(Cl)ccc32)CC1 [Domperidone],percent Bodipy-positive cells,,53.1 ± 8.6%
same,percent Bodipy-positive cells,[1],16.2 ± 1.8%
same,percent Bodipy-positive cells,library stock concentration: 4.7 mM,23.4% and 25.2%
COP(=S)(OC)Oc1ccc(SC)c(C)c1,percent Bodipy-positive cells,[3],31.14 ± 0.21%
O=C([O-])c1ccccc1-c1c2cc(Br)c(=O)cc-2oc2[c]([Hg+])c([O-])c(Br)cc12.[Na+].[Na+].[OH-] [Merbromin],percent Bodipy-positive cells,,5.93 ± 5.8%
same,percent Bodipy-positive cells,[3],25.8 ± 18%
CN1C[C@H](C(=O)N[C@]2(C)O[C@@]3(O)[C@@H]4CCCN4C(=O)[C@H](Cc4ccccc4)N3C2=O)C[C@@H]2c3cccc4[nH]cc(c34)C[C@H]21.CS(=O)(=O)O [Dihydroergotamine methanesulfonate],percent Bodipy-positive cells,[3],94.618 ± 0.044%
C/C=C1/C[N+]2(C)CCC34C(=C(C=O)[C@H]1C[C@@H]32)Nc1ccccc14 (some centres undefined) [Fluorocurarine chloride],percent Bodipy-positive cells,,8.49 ± 2.1%
CC(C)[N+](C)(CCC(C(N)=O)(c1ccccc1)c1ccccc1)C(C)C [Isopropamide iodide],percent Bodipy-positive cells,,9.06 ± 1.4%
same,percent Bodipy-positive cells,[3],16.9 ± 1.4%
C=C1[C@H]2C[C@@]3([C@@H]1O)[C@@H](C[C@@H]2O)[C@]12[C@@H]4C[C@H]3[C@H]1N(CC)C[C@]4(C)CC[C@@H]2O [Napelline],percent Bodipy-positive cells,,8.21 ± 3.2%
CCCCC/C=C\C/C=C\C/C=C\C/C=C\CCCC(=O)NCc1ccc(O)c(OC)c1 [Arvanil],percent Bodipy-positive cells,[4],12.1 ± 6.9%
C#C[C@]1(O)CC[C@H]2[C@@H]3CCC4=CC(=O)CC[C@]4(C)[C@H]3CC[C@@]21C [Ethisterone],percent Bodipy-positive cells,,30.9 ± 11%
same,percent Bodipy-positive cells,[3],81.7 ± 0.95%
S=C(NC1CCCCC1)N1CCC(c2cnc[nH]2)CC1 [Thioperamide maleate],percent Bodipy-positive cells,,11.7 ± 1.2%
same,percent Bodipy-positive cells,[3],24.2 ± 5.1%
S=C(NC1CCCCC1)N1CCC(c2cnc[nH]2)CC1 [Thioperamide],percent Bodipy-positive cells,[3],10.7 ± 2.4%
C#CCN(C)C(C)Cc1ccccc1 (centres undefined) [Deprenyl],percent Bodipy-positive cells,library stock concentration: 26.7 mM,21.2 ± 2.8%
CN1C[C@H](CNC(=O)OCc2ccccc2)C[C@@H]2c3cccc4c3c(cn4C)C[C@H]21 [Metergoline],percent Bodipy-positive cells,[3],68.1 ± 15%
O=C([O-])Cc1ccccc1.[Na+] [Sodium phenylacetate],percent Bodipy-positive cells,library stock concentration: 12.6 mM,7.4% and 2.37%
N=C(NCc1ccc(Cl)cc1)SCCCc1c[nH]cn1 [Clobenpropit],percent Bodipy-positive cells,[3],62.9 ± 10%
CN1[C@@H]2CC(O)C[C@H]1[C@@H]1O[C@@H]12 (some centres undefined) [Scopine HCl],percent Bodipy-positive cells,[1],6.06 ± 1.3%
same,percent Bodipy-positive cells,[3],10.1 ± 1.4%
COc1ccc2c(c1)[nH]c1c(C)nccc12 [Harmine],percent Bodipy-positive cells,library stock concentration: 9.4 mM,64 ± 6.7%
N[C@@H](Cn1oc(=O)[nH]c1=O)C(=O)O [L-Quisqualic acid],percent Bodipy-positive cells,[3],7.85 ± 3.8%
NC(N)=NOCC[C@H](N)C(=O)O [L-Canavanine sulfate],percent Bodipy-positive cells,[3],30.4 ± 0.59%
NC(N)=NOCC[C@H](N)C(=O)O [L-Canavanine],percent Bodipy-positive cells,[3],22.9 ± 8%
NC(N)=NOCC[C@H](N)C(=O)O [Canavanine],percent Bodipy-positive cells,[3],20.8 ± 0.78%
"NC(N)=NOCC[C@H](N)C(=O)O [Canavanine sulfate monohydrate (L,+)]",percent Bodipy-positive cells,,27.9 ± 6.8%
O=S(=O)(CC1CS1)c1ccc(Oc2ccccc2)cc1 (centres undefined),percent Bodipy-positive cells,[1],30.3 ± 3.6%
same,percent Bodipy-positive cells,[3],42.2 ± 11%
C[C@H](Cc1ccc(OCC(=O)O)cc1)NC[C@H](O)c1cccc(Cl)c1,percent Bodipy-positive cells,[3],6.14 ± 0.11%
CC(=O)N(C)c1cccc(-c2ccnc3c(C(=O)c4cccs4)cnn23)c1 [Indiplon],percent Bodipy-positive cells,[3],8.87 ± 1.4%
CN1[C@@H]2CCC[C@H]1CC(=O)C2 [Pseudopelletierine hydrochloride],percent Bodipy-positive cells,,37.9 ± 9.8%
C=C(C)[C@H]1CN[C@H](C(=O)O)[C@H]1CC(=O)O [(-)-(.alpha.)-Kainic Acid (hydrate)],percent Bodipy-positive cells,[4],7.15 ± 2.7%
CN1C2CCC1CC(OC(c1ccc(F)cc1)c1ccc(F)cc1)C2.Cl (centres undefined),percent Bodipy-positive cells,[3],77.4 ± 3.2%
O=C(N[C@H]1CN2CCC1CC2)c1cc2ccoc2cn1,percent Bodipy-positive cells,[3],37 ± 2.4%
C[C@H](N)Cc1cnc[nH]1 [(S)-(+)-a-Methylhistamine dihydrobromide],percent Bodipy-positive cells,[3],5.81 ± 1.8%
Cc1cc(O)ccc1Cl [Chlorocresol],percent Bodipy-positive cells,[1],8.31 ± 3.4%
same,percent Bodipy-positive cells,library stock concentration: 14 mM,3.71 ± 0.96%
c1ccc(CCCCN2CCC(c3ccccc3)CC2)cc1 [4-PPBP maleate],percent Bodipy-positive cells,[3],63.4 ± 4.2%
"O=[N+]([O-])c1ccc2nc(N3CCNCC3)ccc2c1 [Quipazine, 6-nitro-, maleate]",percent Bodipy-positive cells,[3],64.9 ± 2.7%
COc1cc(C=Cc2ccc(OC)c(O)c2)cc(OC)c1,percent Bodipy-positive cells,[4],49.1 ± 7.1%
C=C[C@H]1CN2CC[C@H]1C[C@H]2[C@H](OC(=O)OCC)c1ccnc2ccc(OC)cc12 [Quinine ethyl carbonate],percent Bodipy-positive cells,library stock concentration: 5 mM,8.45 ± 8.3%
same,percent Bodipy-positive cells,[3],60.5 ± 11%
CN1Cc2ccccc2[C@@H]2c3cccc4[nH]cc(c34)C[C@H]21,percent Bodipy-positive cells,[3],41.7 ± 4.4%
CCCCC[C@@H](/C=C/C=C\CCCCCCCC(=O)O)OO,percent Bodipy-positive cells,library stock concentration: 100 uM,7.75 ± 7.6%
CC(C)[C@@H]1NC(=O)[C@H](C)OC(=O)[C@@H](C(C)C)NC(=O)[C@@H](C(C)C)OC(=O)[C@H](C(C)C)NC(=O)[C@H](C)OC(=O)[C@@H](C(C)C)NC(=O)[C@@H](C(C)C)OC(=O)[C@H](C(C)C)NC(=O)[C@H](C)OC(=O)[C@@H](C(C)C)NC(=O)[C@@H](C(C)C)OC1=O [Valinomycin],percent Bodipy-positive cells,library stock concentration: 4.5 mM,72 ± 20%
N#Cc1ccc(N2CCN(C(=O)COc3ccc4[nH]cc(CCN)c4c3)CC2)cc1 [Donitriptan hydrochloride],percent Bodipy-positive cells,[3],7.56 ± 0.86%
"CN(C(=O)Cc1ccc(Cl)c(Cl)c1)[C@H](CN1CCCC1)c1ccccc1.Cl [ICI-199,441 hydrochloride]",percent Bodipy-positive cells,[3],93.8 ± 2.4%
C[C@]12CC[C@H]3[C@@H](CCC4=CC(=O)CC[C@@H]43)[C@@H]1CC[C@@H]2O [Nandrolone],percent Bodipy-positive cells,,25.6 ± 2.2%
C[C@]12CC[C@H]3[C@@H](CCC4=CC(=O)CC[C@@H]43)[C@@H]1CC[C@@H]2O [19-Nortestosterone],percent Bodipy-positive cells,[3],34.3 ± 2.6%
CCCCC/C=C\C/C=C\C/C=C\C/C=C\CCCC(=O)Nc1ccc(O)cc1C,percent Bodipy-positive cells,[4],21.7 ± 8.7%
COc1ccc(CN2CCNCC2)c(OC)c1OC [Trimetazidine dihydrochloride],percent Bodipy-positive cells,,30.17 ± 0.11%
